PubChem BioAssay AID1159584 – Peter MacCallum Cancer Centre – 2016

- Screen: 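Knock-downs that harm CDH1-null cells more than parental MCF10A cells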 (primary screen)
- Cells: human MCF10A breast epithelial cells, parental and CDH1-null
- Knock-down reagent: siRNA against human genes
- Measured: 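ATP luminescence (CellTiter-Glo) viability per line relative to mean mock wells over all plates, and the ratio of CDH1-null to parental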
- Reading the numbers: CDH1-null / parental viability ratio: higher = CDH1-null cells survive relatively better than parental; CDH1-null viability vs mock: higher = more viable CDH1-null cells; parental viability vs mock: higher = more viable parental cells
Here is an unselected part of about 18,000 deposited reagents. Reagent sequences are not shown. The record does not give: the amount of reagent, the time to read-out.

gene symbol | PubChem SID | CDH1-null / parental viability ratio | CDH1-null viability vs mock (fraction of mock) | parental viability vs mock (fraction of mock)
RDH8 | SID152156746 | 0.9 | 0.85 | 0.94
GPX3 | SID152154632 | 0.86 | 0.38 | 0.44
INSRR | SID56479015 | 1 | 0.86 | 0.86
IKZF4 | SID152147934 | 1.14 | 0.58 | 0.51
ARHGEF4 | SID135621532 | 1.42 | 0.51 | 0.36
LRRK2 | SID152152689 | 1.06 | 1.03 | 0.97
SAFB | SID134310771 | 1.68 | 0.64 | 0.38
SRSF11 | SID135622224 | 1.4 | 0.77 | 0.55
PPRC1 | SID152154201 | 0.94 | 0.63 | 0.67
ATP6V1G1 | SID152155669 | 1.09 | 0.76 | 0.7
RARA | SID152153401 | 0.92 | 0.73 | 0.79
PLS3 | SID134316285 | 1.14 | 0.89 | 0.78
VPS37D | SID135624501 | 1.25 | 0.74 | 0.59
C22orf42 | SID135624461 | 0.92 | 0.72 | 0.78
PRELID3A | SID134323892 | 1.16 | 0.89 | 0.77
PGAP4 | SID135622829 | 0.98 | 0.5 | 0.51
ECPAS | SID152148752 | 1.04 | 1.06 | 1.02
LRP1B | SID152147996 | 1.14 | 1 | 0.88
NDUFA2 | SID135623620 | 0.86 | 0.78 | 0.91
AMY1B | SID135625181 | 0.92 | 0.74 | 0.8
NPR3 | SID134312981 | 0.77 | 0.82 | 1.07
NPR3 | SID152147892 | 1.11 | 1 | 0.9
TTC21B | SID152154188 | 0.84 | 0.74 | 0.88
AVPI1 | SID135622641 | 0.73 | 0.48 | 0.66
SGIP1 | SID152150305 | 0.84 | 0.76 | 0.9
MIPEP | SID135621112 | 1.16 | 1.03 | 0.89
FHIP2A | SID135624558 | 0.7 | 0.48 | 0.69
GIN1 | SID152152819 | 0.78 | 0.42 | 0.54
